# Measurements from US20230070126A1.
# Chains of the proteins cited; added tags and fusions are not shown. Residues count along the entry.
# UniProt P22646, residues 135-189: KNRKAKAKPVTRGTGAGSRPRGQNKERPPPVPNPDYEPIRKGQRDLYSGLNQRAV
# UniProt P06239, residues 2-509: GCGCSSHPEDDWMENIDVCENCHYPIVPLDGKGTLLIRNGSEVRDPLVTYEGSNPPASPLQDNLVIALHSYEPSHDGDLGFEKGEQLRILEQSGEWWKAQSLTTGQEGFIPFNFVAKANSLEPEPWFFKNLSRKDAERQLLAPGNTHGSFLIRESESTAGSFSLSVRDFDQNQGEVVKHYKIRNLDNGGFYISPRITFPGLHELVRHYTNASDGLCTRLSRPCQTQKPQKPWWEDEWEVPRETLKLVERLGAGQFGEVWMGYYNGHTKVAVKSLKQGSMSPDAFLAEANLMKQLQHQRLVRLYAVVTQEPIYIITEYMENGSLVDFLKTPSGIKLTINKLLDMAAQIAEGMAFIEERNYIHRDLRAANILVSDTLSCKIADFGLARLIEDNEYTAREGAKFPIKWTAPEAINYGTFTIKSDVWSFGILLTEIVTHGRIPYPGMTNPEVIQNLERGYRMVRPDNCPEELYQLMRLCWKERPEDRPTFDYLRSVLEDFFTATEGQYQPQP
# No constants are given. Whether binding was seen depends on the method and setting. In cells and extracts the contact can be indirect. Some results given as binding are weak or reduced against the parent protein; the word gives no strength.
# Legend:
# [1] = target: biotinylated murine CD3ε-derived peptide, complete cytoplasmic tail, non-phosphorylated (murine) (UniProt P22646); assay: Jurkat lysate pull-down with biotinylated CD3ε peptides and streptavidin beads, immunoblot
# [2] = target: biotinylated murine CD3ε-derived peptide, complete cytoplasmic tail, doubly ITAM tyrosine phosphorylated (murine) (UniProt P22646); assay: as above
substance,measurement,setting,value
endogenous full length LCK (lymphocyte specific Src kinase) of human T cells (from UniProt P06239 2-509) (enzyme),binding,[1],binds
same,binding,[2],binds
